In US6605631B1, “Ortho-substituted 2-methoxyiminophenyl-N-methylacetamides” (BASF Aktiengesellschaft, priority 1993, dated 2003):
Some results were stated once for a whole list of compounds, not compound by compound.

Legend:
[1] = tested on: Plasmopara viticola (vine Peronospora); assay: Plasmopara viticola (vine Peronospora), spray test on potted vines; format: in vivo; settings: potted vines treated with 63 ppm; infected 8 days after spraying; untreated plants 80% of leaf undersides infested
[2] = tested on: Erysiphe graminis var. tritici (wheat mildew); assay: Erysiphe graminis var. tritici (wheat mildew), protective spray test on wheat seedlings; format: in vivo; settings: wheat seedlings treated with 63 ppm; assessed after 7 days; untreated plants 65% of leaf surfaces infested

SMILES | infestation [1] | infestation (fungal infestation of the leaves) [2]
CNC(=O)/C(=N/OC)c1ccccc1COc1nc(-c2ccccc2)cs1 [Compound 34] | ≤ 15% | 
CNC(=O)/C(=N/OC)c1ccccc1COc1cnn(-c2ccc(C(F)(F)F)cc2)c1 [Compound 14] | ≤ 15% | ≤ 15%
CNC(=O)/C(=N/OC)c1ccccc1COc1nc(-c2ccccc2C)cs1 [Compound 35] | ≤ 15% | ≤ 15%
CNC(=O)/C(=N/OC)c1ccccc1COc1nc(C)c(C(C)=NOC)s1 [Compound 57] |  | ≤ 15%
CNC(=O)/C(=N/OC)c1ccccc1COc1nc(-c2cccc(OC)c2)cs1 [Compound 39] | ≤ 15% | 
CNC(=O)/C(=N/OC)c1ccccc1COc1cnn(-c2ccc(C#N)cc2)c1 [Compound 15] | ≤ 15% | 
CNC(=O)/C(=N/OC)c1ccccc1COc1cc(C(F)(F)F)on1 [Compound 19] |  | ≤ 15%
CNC(=O)/C(=N/OC)c1ccccc1COc1nc(-c2cccc(Br)c2)cs1 [Compound 41] | ≤ 15% | 
CNC(=O)/C(=N/OC)c1ccccc1COc1cnn(-c2ccc(Cl)cc2)c1 [Compound 17] | ≤ 15% | 
